Some of these results come from one statement about several compounds together.
Tested on: Male SD rats
Assay: Onset time, last time, palinesthesia time and adverse effects at 2ED50 via the rat tail vein
Type: in vivo
Details: Example 8, 2ED50 via tail vein, disappearance to recovery of body-righting reflex
Description: Male SD rats (250˜300 g) were used as an experimental animal, and 50% effective dose (ED50) was determined by the sequential method. Three compounds were dissolved in a solvent of DMSO, and etomidate was used as the commercially-available formulation (B BRAUN, Etomidate-Lipuro®, 20 mg/10 mL). Based on the initial dose of 1 mg/kg, other dosages were adjusted as the ratio of 0.8, and the ED50 values of the three compounds and etomidate were determined. Extinction time ≥30 s for the rat body-righting reflex was the positive marker while no disappearance of the righting reflex was considered invalid. Based on the experimental results, four cross-points were formed, and the ED50 values were calculated. […] Then, the respective 2ED50 values of the three compounds and etomidate were taken in an equivalent dose, which were administered via the rat tail vein. The preliminary effects were evaluated in the four rat groups, which were given the three compounds of Formulas (I), (IV), (V) and etomidate, respectively, with 10 rats in each group. […] The last time of the Formula (I) compound and etomidate was 5-6 min, but the last time of the Formulas (IV) and (V) compounds was 10-20 min. […] DMSO had no pharmacological effects, and no adverse effects were observed. The onset time, the last time, and the adverse effects (types, incidence rates) induced by the three compounds and etomidate are shown in the following table:
Male SD rats (250˜300 g) were used as an experimental animal, and 50% effective dose (ED50) was determined by the sequential method. Hydrochlorides of the three compounds were dissolved in the solvent of normal saline, and etomidate was used as the commercially-available formulation (B BRAUN, Etomidate-Lipuro®, 20 mg/10 mL). The initial dose was 1 mg/kg, and the ratio of dosage variation was 0.8, which was applied in the determination of ED50 values of Formula (I) hydrochloride, Formula (I) hydrobromide, Formula (I) trifluoroacetate, and etomidate. Extinction time (≥30 s) of the rat body-righting reflex was the positive marker while no disappearance of the reflex was considered invalid. Based on the experimental results, four cross-points were formed, and then ED50 values were calculated. […] Then, the respective 2ED50 values of the three compounds and etomidate were taken in an equivalent dose, which were administered via the rat tail vein. The preliminary effects were evaluated in the four rat groups, which were given the three compounds of Formulas (I) hydrochloride, Formula (I) hydrobromide, Formula (I) trifluoroacetate, and etomidate, respectively, with 10 rats in each group. […] Palinesthesia time was in arrange of 5-10 min. During the test period, no significant difference was found in the types and the incidence rates of adverse effects in each group. […]

## CCOC(=O)c1cncn1[C@H](C)c1ccccc1 [Etomidate, reference compound]
Listed as etomidate
  Last time: 5 to 6 min

## COCCOC(=O)c1cncn1[C@@H](C)c1ccccc1 [Compound IV]
Listed as Formula (IV)
  Last time: 10 to 20 min

## COCCOC(=O)c1cncn1[C@H](C)c1ccccc1 [Compound I]
Listed as Formula (I) compound
  Last time: 5 to 6 min

## COCCOC(=O)c1cncn1C(C)c1ccccc1 (racemic) [Compound V]
  Last time: 10 to 20 min

From patent US9969695B2, “N-substituted imidazole carboxylic ester chiral compound containing an ether side chain, its preparation and application” (WEST CHINA HOSPITAL, SICHUAN UNIVERSITY, priority 2013, dated 2018)
